According to the odorant receptor screen of Mainland et al. (2015):
Values joined by “and” are separate entries in the source; they are usually repeats but may differ in a detail not shown here. Equal entries are not always repeated. The list shows a part of the results. Each value is one well over the wells without odorant, computed here; the data are noisy.

Tests used:
Experiment in all cases: odorant receptor activation (CRE luciferase / Renilla) (fold of no-odor wells); higher = more activation
Conditions in all cases: 100 µM
[1] = system: OR52H1 clone 1702
[2] = system: OR52I1 clone 1521
[3] = system: OR52I2 T132M clone 1324
[4] = system: OR52K1 clone 1163
[5] = system: OR52K2 clone 1211
[6] = system: OR52L1 D73N/C125R/C146R/K168T/W282R clone 1116
[7] = system: OR52L2 R169W clone 1117
[8] = system: OR52M1 clone 1143
[9] = system: OR52N1 clone 1191
[10] = system: OR52N2 M228T clone 1569
[11] = system: OR52N4 T106I/L167R/N218I clone 1127
[12] = system: OR52N5 clone 1238
[13] = system: OR52P1 clone 1221
[14] = system: OR52R1 I129T/N201Y/S245A clone 1705
[15] = system: OR52W1 clone 1234
[16] = system: OR56A1 clone 1114
[17] = system: OR56A3 M51T clone 1128
[18] = system: OR56A4 clone 1724
[19] = system: OR56A5 clone 1708
[20] = system: OR56B1 C106R clone 1168

Row | SMILES | odorant receptor activation [1] | odorant receptor activation [2] | odorant receptor activation [3] | odorant receptor activation [4] | odorant receptor activation [5] | odorant receptor activation [6] | odorant receptor activation [7] | odorant receptor activation [8] | odorant receptor activation [9] | odorant receptor activation [10] | odorant receptor activation [11] | odorant receptor activation [12] | odorant receptor activation [13] | odorant receptor activation [14] | odorant receptor activation [15] | odorant receptor activation [16] | odorant receptor activation [17] | odorant receptor activation [18] | odorant receptor activation [19] | odorant receptor activation [20]
1 | CCC(C)=O [2-butanone] | 0.714 | 1.1 | 0.957 | 0.747 | 0.663 | 14.9 | 18.3 | 1.21 | 0.879 | 0.76 | 0.885 | 0.534 | 0.8 | 0.87 | 0.894 | 17.8 | 1.44 | 1.15 | 0.902 | 0.664
2 | CCOc1cc(C=O)ccc1O [ethyl vanillin] | 0.881 | 1.11 and 2.17 and 1.24 | 3.23 and 1.31 | 1.73 and 1.04 | 1.44 and 1.02 | 1.33 | 1.15 | 1.79 and 1.14 | 1.61 and 1.12 | 1.13 | 1.12 | 0.928 | 1.51 and 1.11 | 0.882 | 1.15 | 0.826 and 0.797 | 1.92 and 1.33 | 0.948 | 1.1 | 1.12 and 1.34
3 | CCCCOC(C)=O [butyl acetate] | 1.04 | 0.854 | 0.925 | 0.974 | 0.952 | 1.24 | 1.19 | 0.854 | 0.908 | 0.619 | 0.787 | 0.308 | 1.19 | 0.677 | 1.05 | 0.823 | 0.85 | 0.794 | 0.989 | 1.33
4 | CS [methanethiol] | 1.15 | 0.885 | 0.868 | 0.787 | 0.992 | 1.04 | 1.03 | 0.809 | 1.31 | 0.75 | 0.78 | 0.888 | 0.93 | 0.974 | 0.757 | 1 | 1.49 | 0.682 | 1.33 | 0.802
